{"sequences": {"note": "Amino acid sequences for entries named in this document (tags omitted). Residues count along the entry.", "UniProt P16070, 21-742": "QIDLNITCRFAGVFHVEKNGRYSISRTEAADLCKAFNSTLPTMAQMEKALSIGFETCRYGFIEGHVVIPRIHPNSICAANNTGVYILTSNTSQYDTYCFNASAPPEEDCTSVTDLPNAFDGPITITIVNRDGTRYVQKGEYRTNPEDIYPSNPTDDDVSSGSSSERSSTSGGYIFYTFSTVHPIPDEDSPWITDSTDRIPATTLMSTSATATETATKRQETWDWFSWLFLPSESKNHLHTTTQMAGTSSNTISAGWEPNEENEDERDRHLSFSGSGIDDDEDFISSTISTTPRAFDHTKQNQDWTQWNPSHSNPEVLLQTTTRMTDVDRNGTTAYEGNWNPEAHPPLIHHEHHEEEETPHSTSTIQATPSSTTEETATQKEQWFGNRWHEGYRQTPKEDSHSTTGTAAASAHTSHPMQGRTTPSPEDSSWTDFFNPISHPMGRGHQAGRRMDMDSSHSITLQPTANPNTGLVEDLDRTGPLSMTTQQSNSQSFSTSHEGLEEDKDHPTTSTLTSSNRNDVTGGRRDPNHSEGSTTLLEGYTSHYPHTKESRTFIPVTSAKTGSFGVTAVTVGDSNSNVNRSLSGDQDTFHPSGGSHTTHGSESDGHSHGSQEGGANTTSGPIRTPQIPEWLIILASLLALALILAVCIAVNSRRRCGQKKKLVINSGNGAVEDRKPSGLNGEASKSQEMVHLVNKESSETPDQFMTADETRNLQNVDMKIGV"}, "source": "patent US20250073355A1", "about": "“CD44-BINDING PEPTIDE REAGENTS AND METHODS” (THE REGENTS OF THE UNIVERSITY OF MICHIGAN, priority 2021, published 2025)", "molecular_target": "T1, CD44 (Homo sapiens, UniProt P16070)", "T1 construct": "endogenous in cells; host or cells: SK-Hep1 (human HCC cells)", "test": "siRNA knockdown of CD44 in SK-Hep1 cells, confocal binding", "type": "cell-based", "conditions": "4 μM peptide, 3 min; confocal microscopy", "method": "CD44 expression in SK-Hep1 cells was knocked down using three different siRNAs, including 1) L-009999-00-0005, Dharmacon; 2) s2681, Thermo Fisher; and 3) 106160, Thermo Fisher. MISSION® siRNA Universal Negative Control (SIC001, Sigma) was used for control. Cells were transfected with Lipofectamine 2000 (11668027, Invitrogen) per manufacturer instructions, and then incubated with 4 μM of peptide for 3 min. A 1:3000 dilution of rabbit anti-CD44 antibody (EPR18668, Abcam) was used for positive control. CD44 expression was determined by Western blot within 72 hours.\nApproximately 10^3 SK-Hep1 and Hep 3B cells were grown on cover glass in 24-well plate to ˜70% confluence. The cells were washed with PBS 1× and incubated with 4 μM of either target or control peptide for 3 min. The cells were then washed 3× in PBS, fixed with 4% paraformaldehyde (PFA) for 8 min, washed 3× with PBS then incubated with 2% BSA, 1% goat serum in PBS for 30 min. […] Confocal fluorescence images were collected on Leica SP8 confocal microscope using a 63× oil-immersion objective. Fluorescence intensities were quantified using custom MATLAB (Mathworks) software."}
{"smiles": "CC(C)C[C@H](NC(=O)[C@H](Cc1ccc(O)cc1)NC(=O)[C@H](CO)NC(=O)[C@H](Cc1c[nH]c2ccccc12)NC(=O)CNC(=O)[C@H](CCCCN)NC(=O)[C@@H](N)Cc1c[nH]c2ccccc12)C(=O)N[C@@H](Cc1c[nH]c2ccccc12)C(=O)N[C@H](C(=O)N[C@@H](CCC(N)=O)C(=O)N[C@@H](CCC(N)=O)C(=O)N[C@@H](C)C(=O)NCC(=O)NCC(=O)NCC(=O)N[C@@H](CO)C(=O)N[C@@H](CSC1CC(=O)N(CCNC(=O)CCCCCN2C(=CC=C3CCCC(C=CC4=[N+](CCCCS(=O)(=O)[O-])c5ccc(S(=O)(=O)O)cc5C4(C)C)=C3Oc3ccc(S(=O)(=O)O)cc3)C(C)(C)c3cc(S(=O)(=O)O)ccc32)C1=O)C(N)=O)[C@@H](C)O", "note": "(stereo partly shown) [WKG*-IRDye800]", "values": [{"measurement": "binding to the surface of SK-Hep1 cells transfected with siCL (control)", "value": "strong binding"}]}
